We go through 67 molecules from PubChem BioAssay AID662 (National Center for Advancing Translational Sciences (NCATS), 2007).

Values joined by “and” are separate entries in the source; they are usually repeats but may differ in a detail not shown here. Equal values may be shown once. Some of the results follow. The main result of the screen is listed elsewhere. These columns were measured beside it and carry no call. Most of these compounds were active or inconclusive in the main read-out, so they are no random draw. The note in brackets gives the kind of curve behind each potency; many fits are weak.

Broadly, the AC50 is the concentration giving half of the maximal activity seen.

A short description of the experiment: Cell signaling CRE-BLA (Fsk stim). Conditions: CHO CRE-bla reporter (cAMP response element driving beta-lactamase), forskolin EC10, beta-lactamase ratio; measured here: 460 nm blue channel. The essentials:
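Beta-lactamase reporter under a cAMP responsive element in CHO cells; compounds tested in titration series against EC10 NKH 477, 3 h at 37 °C. Read-out: CCF4 FRET ratio 460nm/530nm (excitation 405nm) giving %Activity, fitted to AC50.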
For the molecule `COC(=O)c1[nH]c(C)c(/C(O)=C2\C(=O)C(=O)N(CCN(C)C)C2c2ccc(OC)cc2)c1C` (configuration not stated), the AC50 is 25.1 µM [rising, single point].

Consider `CCCCN(CC)CCNC(=O)Cn1cnc2sc(C)c(S(=O)(=O)N3CCOCC3)c2c1=O`, for which the AC50 is 0.0501 µM [falling, full curve].

Consider `COC(=O)c1c(NC(=O)c2ccc(C)o2)sc2c1CCCCC2`, for which the AC50 was 7.94 µM [rising, partial curve].

On to `Cc1cc(C)n2nc(SCc3ncc(-c4ccccc4)o3)nc2n1`, for which the AC50 was 3.98 µM [rising, partial curve].

As to `CN(C)c1ncc2nc(-c3ccccc3)c(=O)n(Cc3ccc(F)cc3)c2n1`, the AC50 is 1.58 µM [rising, partial curve].

Take `N#Cc1nc(COc2ccccc2F)oc1NCCc1ccccc1`: the concentration at half-maximal activity (AC50) is 5.01 µM [falling, partial curve, poor fit].

With `Cc1ccc(C(=O)CSc2nnc(-c3cccnc3)n2N)cc1`, the AC50 was 10 µM [rising, single point].

`Cn1ccnc1SC(=O)N1c2ccccc2Sc2ccccc21`: the half-maximal activity concentration (AC50) is 1 µM [falling, partial curve].

Take `CCCCOc1ccc(C(C)(O)CCN2CCOCC2)cc1` (configuration not stated): the AC50 is 3.98 µM [falling, single point].

With `CC(=O)NCCNc1ncnc2ccc(-c3ccccc3C#N)cc12`, the AC50 was 6.31 µM [rising, partial curve].

Take `CN1C2CCC1CC(OC(=O)c1c[nH]c3ccccc13)C2` (configuration not stated): the AC50 was 0.00398 µM [falling, full curve, poor fit].

Regarding `COc1ccccc1-c1ccc2ncnc(N3CCOCC3)c2c1`, the half-maximal activity concentration (AC50) is 0.501 µM [rising, single point].

In the case of `COc1cccc(Nc2ncc3nc(-c4cc(F)cc(F)c4)c(=O)n(C4CC4)c3n2)c1`, the AC50 is 1.26 µM [rising, partial curve].

For `CCCc1cc(C(N)=O)c(NC(=O)c2ccoc2C)s1`, the AC50 is 10 µM [rising, partial curve].

Regarding `COc1ccc(OC)c(C(C(=O)NCc2ccco2)N(C(=O)Cn2nnc3ccccc32)C(C)C)c1` (configuration not stated), the AC50 is 25.1 µM [falling, single point].

Take `O=C(CCn1nnc2ccccc2c1=O)N[C@@H](Cc1ccccc1)C(=O)O`: the AC50 was 1 µM [rising, partial curve].

Regarding `CCc1c(C)nc2cc(-c3cc(OC)cc(OC)c3)nn2c1N1CCCC1`, the AC50 is 5.01 µM [rising, partial curve].

Take `CCN1C(=O)/C(=C2/C=CC=CN2C)SC1=S`: the AC50 is 0.316 µM [rising, partial curve].

Take `COc1ccc(C)cc1NC(=O)c1cnc2sccn2c1=O`: the AC50 is 10 µM [rising, partial curve].

With `COc1ccc(-c2nc3cnc(OC)nc3n(C[C@H]3CCCO3)c2=O)cc1`, the AC50 is 12.6 µM [rising, partial curve].

With `CCCCc1ccc(Nc2ncnc3nc[nH]c23)cc1`, the AC50 is 10 µM [rising, partial curve].

As to `CC(=O)N1CCc2cc(S(=O)(=O)NCCC(=O)Nc3ccc4c(c3)OCCO4)ccc21`, the AC50 is 0.0251 µM [falling, full curve, poor fit].

On to `O=C(OCCN1C(=O)c2ccccc2C1=O)c1cccc(OC(F)F)c1`, for which the half-maximal activity concentration (AC50) was 3.98 µM [falling, partial curve].

Consider `Cn1c(=O)oc2cc(S(=O)(=O)Nc3ccc4c(c3)OCCO4)ccc21`, for which the AC50 was 5.01 µM [falling, single point].

For `CC(C)Nc1oc(-c2cccc3ccccc23)nc1C#N`, the AC50 is 12.6 µM [rising, partial curve].

On to `COc1c2occc2cc2ccc(=O)oc12`, for which the concentration at half-maximal activity (AC50) was 10 µM [rising, partial curve] and 15.8 µM [rising, partial curve] and 10 µM [rising, single point].

For the molecule `Cc1ccc(CCNC(=O)NC(C)(C)C)cc1`, the half-maximal activity concentration (AC50) is 0.00316 µM [falling, full curve, poor fit].

For the molecule `CCc1cc2cc(C)ccc2nc1SCC(=O)N1CCN(C(=O)c2ccco2)CC1`, the AC50 was 15.8 µM [rising, single point].

For the molecule `Oc1ccc(N=Cc2ccc(O)c(O)c2)cc1`, the AC50 is 15.8 µM [falling, partial curve].

Take `O=C1C=C(NCC2CCCO2)C2(CCCCC2)O1` (configuration not stated): the concentration at half-maximal activity (AC50) was 0.0501 µM [falling, full curve, poor fit].

In the case of `CCOc1ncccc1C(=O)Nc1ccc(-c2cn3ccsc3n2)cc1`, the AC50 was 5.01 µM [rising, partial curve].

On to `COC(=O)CS(=O)(=O)c1nnc([C@H](Cc2ccccc2)NC(=O)OC(C)(C)C)o1`, for which the concentration at half-maximal activity (AC50) is 20 µM [falling, partial curve, poor fit].

`CC(CCc1ccccc1)C(=O)NO` (configuration not stated): the AC50 is 0.794 µM [falling, partial curve].

On to `CC(C)n1c(=N)c(C(=O)NCCc2ccccc2)cc2c(=O)n3ccccc3nc21`, for which the AC50 was 12.6 µM [rising, partial curve].

`Cc1cc(Cl)c(S(=O)(=O)NCC2CCCO2)cc1OCC(N)=O` (configuration not stated): the half-maximal activity concentration (AC50) was 2.51 µM [falling, single point].

Consider `CCC(Sc1nc(=O)cc(N)n1-c1ccccc1)C(=O)Nc1cc(C)on1` (configuration not stated), for which the half-maximal activity concentration (AC50) was 1 µM [falling, partial curve, poor fit].

As to `CN1CCN(C2=Nc3ccccc3Oc3ccc(Cl)cc32)CC1`, the AC50 is 12.6 µM [falling, single point].

Turning to `Cc1cccc2sc(NC(=O)CN(C)S(=O)(=O)c3ccc(Br)s3)nc12`, the AC50 is 10 µM [falling, partial curve].

Consider `c1ncc(-c2ccc3c(c2)OCO3)c(NCCc2cnc[nH]2)n1`, for which the AC50 was 0.1 µM [falling, full curve, poor fit].

Take `CCc1nc(N2CCN(C(=O)c3ccco3)CC2)c2oc3ccccc3c2n1`: the half-maximal activity concentration (AC50) was 6.31 µM [rising, partial curve].

With `CCN(CC)C(=O)Oc1ccc2c(=O)c(-c3ccc(OC)cc3)coc2c1`, the AC50 was 12.6 µM [falling, single point].

As for `Cc1nc(NC2=NCN(CCc3ccccc3)CN2)nc2c(C)cccc12`, the AC50 is 25.1 µM [rising, single point].

For the molecule `COc1ncc2nc(-c3cn(C)c4ccccc34)c(=O)n(Cc3ccc(F)cc3)c2n1`, the AC50 is 5.01 µM [rising, partial curve].

`CCOC(=O)c1c(-c2ccc(C)o2)csc1NC(=O)CSc1nnc(C)s1`: the AC50 was 10 µM [rising, single point].

In the case of `CN(Cc1cnc2nc(N)nc(N)c2n1)c1ccc(C(=O)N[C@H](CCC(=O)O)C(=O)O)cc1`, the AC50 is 31.6 µM [rising, single point].

In the case of `C=CCNC(=O)c1ccc(C(=O)c2ccccc2)cc1`, the AC50 was 5.01 µM [falling, single point].

Turning to `Cc1c(C(=O)NCCN2CCOCC2)oc2ccccc12`, the AC50 is 0.00794 µM [falling, full curve].

In the case of `CCc1c2c(nc3ccc(OC)cc13)OC(CC)C2` (configuration not stated), the AC50 was 20 µM [rising, single point].

`Nc1c(C(=O)OCC2CCCO2)c2nc3ccccc3nc2n1-c1ccc2c(c1)OCCO2` (configuration not stated): the AC50 was 0.1 µM [rising, full curve].

As for `O=C(NCc1ccc(Cl)cc1)C1C2C=CC3(CN(Cc4cccnc4)C(=O)C13)O2` (configuration not stated), the AC50 was 0.398 µM [rising, full curve].

Take `Fc1ccc(-c2cc3nc4c(c(N5CCOCC5)n3n2)CCCC4)cc1`: the AC50 is 5.01 µM [rising, single point].

`Cc1nc2ccccc2n1CC(=O)NCc1ccccc1`: the AC50 is 3.98 µM [falling, full curve].

Turning to `O=C(CCN1C(=O)C2C3C=CC(C3)C2C1=O)N1CC(=O)N(CCc2ccccc2)C(=O)C1` (configuration not stated), the AC50 is 0.251 µM [falling, full curve, poor fit].

Consider `CC1=CC(C)(C)N(C(=O)CSc2nnc(-c3ccccc3)o2)c2ccc(C)cc21`, for which the AC50 was 0.316 µM [rising, full curve].

Regarding `COCCNC(=O)c1sc2nc(-c3ccccc3)cn2c1C`, the concentration at half-maximal activity (AC50) is 20 µM [rising, single point].

Consider `O=c1oc2ccccc2c(O)c1CN1CCCCC1`, for which the AC50 was 3.98 µM [rising, single point].

For the molecule `O=S(=O)(c1ccc2c(c1)OCCO2)N(Cc1ccc(F)cc1)Cc1nnc(-c2cccs2)o1`, the concentration at half-maximal activity (AC50) was 2.51 µM [falling, partial curve].

With `O=C(Nc1cccc(F)c1)C1CCN(c2nnnn2-c2ccccc2)CC1`, the AC50 is 5.01 µM [falling, single point].

On to `CCC1Sc2ccccc2N(CC(=O)NCCC(C)C)C1=O` (configuration not stated), for which the half-maximal activity concentration (AC50) is 3.16 µM [falling, single point].

`CCOC(=O)c1[nH]nc2c1C(=O)N(CC)C2=O`: the concentration at half-maximal activity (AC50) was 10 µM [falling, partial curve, poor fit].

Regarding `CCOC(=O)c1sc(NC(=O)c2cccs2)cc1C`, the concentration at half-maximal activity (AC50) was 12.6 µM [rising, single point].

For the molecule `COc1cc(/C=N/n2c(SC)nnc(C(C)(C)C)c2=O)ccc1O`, the AC50 is 12.6 µM [rising, partial curve].

On to `CCOC(=O)Cc1c(C)c2ccc(N(CC)CC)cc2oc1=O`, for which the half-maximal activity concentration (AC50) is 10 µM [rising, partial curve].

As for `COc1ccc(S(=O)(=O)Cc2ccc(C(=O)N3CCN(c4cccc(C)c4)C(C)C3)o2)cc1` (configuration not stated), the concentration at half-maximal activity (AC50) was 25.1 µM [falling, single point].

For `CCCCn1c(=O)n(Cc2cccc(F)c2)c(=O)c2c1ncn2Cc1ccco1`, the AC50 is 7.94 µM [rising, partial curve, poor fit].

As for `COc1ccccc1-n1cnc2cc(NS(=O)(=O)c3ccccc3)ccc21`, the AC50 is 12.6 µM [rising, single point].

In the case of `CCCS(=O)(=O)c1nc(S(=O)(=O)c2ccc(C)cc2)c(N2CCCC2)s1`, the half-maximal activity concentration (AC50) was 0.0501 µM [rising, single point].
